Test [1] concerns the target T1, endogenous MMRN2 from HUVEC whole cell lysates (human) (UniProt Q9H8L6).
T1 sequence: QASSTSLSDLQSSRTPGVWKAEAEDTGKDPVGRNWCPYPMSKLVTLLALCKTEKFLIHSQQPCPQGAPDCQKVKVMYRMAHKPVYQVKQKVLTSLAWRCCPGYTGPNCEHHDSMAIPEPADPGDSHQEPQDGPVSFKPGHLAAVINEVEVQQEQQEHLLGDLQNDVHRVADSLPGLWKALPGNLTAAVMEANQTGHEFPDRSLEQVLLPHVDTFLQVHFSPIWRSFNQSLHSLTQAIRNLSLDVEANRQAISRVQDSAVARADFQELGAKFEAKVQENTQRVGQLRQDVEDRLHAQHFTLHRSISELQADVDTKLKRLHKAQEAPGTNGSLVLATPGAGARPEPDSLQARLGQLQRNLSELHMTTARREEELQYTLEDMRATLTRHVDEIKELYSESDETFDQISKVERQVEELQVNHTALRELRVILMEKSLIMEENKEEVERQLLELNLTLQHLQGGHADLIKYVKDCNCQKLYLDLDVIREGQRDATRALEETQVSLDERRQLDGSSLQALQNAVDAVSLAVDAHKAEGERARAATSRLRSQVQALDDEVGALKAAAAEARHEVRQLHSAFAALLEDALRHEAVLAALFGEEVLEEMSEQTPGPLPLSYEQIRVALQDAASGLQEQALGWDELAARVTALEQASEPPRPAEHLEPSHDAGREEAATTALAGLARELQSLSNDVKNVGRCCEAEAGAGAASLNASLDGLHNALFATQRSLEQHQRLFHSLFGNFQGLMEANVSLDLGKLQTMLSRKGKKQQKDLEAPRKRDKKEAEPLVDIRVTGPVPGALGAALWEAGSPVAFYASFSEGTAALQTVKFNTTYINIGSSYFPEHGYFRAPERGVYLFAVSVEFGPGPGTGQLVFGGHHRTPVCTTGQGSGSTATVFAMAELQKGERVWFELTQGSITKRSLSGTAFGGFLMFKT
The test can be described thus: co-immunoprecipitation from HUVEC lysate.

The chains behind the UniProt entries cited, without tags or fusion partners. Where a name states a change or a piece, a line headed by the entry shows the natural chain unless it says otherwise.
UniProt Q86T13: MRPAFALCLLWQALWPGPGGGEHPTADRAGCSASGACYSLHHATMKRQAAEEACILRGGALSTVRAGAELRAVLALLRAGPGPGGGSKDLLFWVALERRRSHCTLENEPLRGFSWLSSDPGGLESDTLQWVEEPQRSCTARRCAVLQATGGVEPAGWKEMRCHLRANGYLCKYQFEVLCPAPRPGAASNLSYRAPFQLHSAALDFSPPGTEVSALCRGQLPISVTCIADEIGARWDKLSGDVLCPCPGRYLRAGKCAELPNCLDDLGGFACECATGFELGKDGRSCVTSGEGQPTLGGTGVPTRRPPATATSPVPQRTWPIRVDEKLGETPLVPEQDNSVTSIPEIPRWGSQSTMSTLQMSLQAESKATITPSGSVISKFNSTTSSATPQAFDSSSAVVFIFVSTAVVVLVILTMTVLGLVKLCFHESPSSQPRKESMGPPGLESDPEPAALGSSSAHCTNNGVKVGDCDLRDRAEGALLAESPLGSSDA

Test [2] has as its target T1, endogenous MMRN2 from HUVEC whole cell lysates (human). The test can be described thus: co-immunoprecipitation from HUVEC lysate, Western blot (FIG. 4B). A general note: In western blotting, separated proteins are transferred to a membrane and probed.
Test [3] shares this target. The test can be described thus: co-immunoprecipitation from HUVEC whole cell lysate with polyclonal anti-CLEC14A, Western blot.
Test [4] concerns the target T2, full-length human MMRN2 with a His tag overexpressed in HEK293T cells (human) (UniProt Q9H8L6).
T2 sequence: T1 sequence
Description: pull-down of His-tagged MMRN2 from HEK293T lysate by CLEC14A-ECD-Fc on protein A beads (FIG. 12).

No constants are given. Whether binding was seen depends on the method and setting. Binding seen in cells or lysates may run through a third protein. Some results given as binding are weak or reduced against the parent protein; the word gives no strength. For some of these results: Tags and fused reporters may be left off the sequences shown.

With “endogenous human CLEC14A of HUVEC (from UniProt Q86T13 22-490) (receptor)”, the binding result in test [1], in test [2] and in test [3] was “binds” in each case.
As to “human CLEC14A extracellular domain protein tagged with human Fc (from UniProt Q86T13 22-396) (Fc fusion)”, the binding entry in test [4] is recorded as “binds”.

The record behind these values is US20180282418A1.
